The values that follow come from patent publication US20060177907A1 (University of California, published 2006).

These are yes or no findings as the source states them, for the method shown. Some entries that bind do so weakly or less than the wild type. Tags and fused reporters may be left off the sequences shown.

Assay [1] concerns the target T1, trx-hrg, thioredoxin-heregulin fusion with a C-terminal His and S-tag (human).
T1 sequence: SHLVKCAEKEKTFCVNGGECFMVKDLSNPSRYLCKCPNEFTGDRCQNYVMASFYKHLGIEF
Nature of the assay: SPR (BIAcore), immobilized trx-hrg. Background: Surface plasmon resonance follows binding to a sensor surface in real time, without labels.

For assay [2] the target is unchanged. Nature of the assay: SPR (BIAcore), immobilized trx-hrg (FIG. 7B legend).
Assay [3] has the same target. Nature of the assay: pull-down on trx-hrg-coupled S-protein agarose.
For assay [4] the target is unchanged. Nature of the assay: SPR (BIAcore), trx-hrg immobilized on a CM5 chip, HER3-ECD^I-II in solution.
Assay [5] shares this target. Nature of the assay: pull-down on S-tagged hrg on S-protein resin (FIG. 10A legend).

For the molecule “HER3^I-II V66A (from UniProt P21860 20-329) (receptor)”, the binding result in assay [1] is reported as “binds”. On the same count and under the same terms, in the case of “HER3^I-II K51A (from UniProt P21860 20-329) (receptor)” it was “binds”. For the molecule “HER3^I-II E43A (from UniProt P21860 20-329) (receptor)”, the binding entry in assay [1] was “binds”.

B1: HER3-ECD^I-II (residues 20-329), recombinant domains I and II of HER3 expressed in Drosophila S2 cells (receptor, not shown: small tags and cut ends)
chain: SEVGNSQAVCPGTLNGLSVTGDAENQYQTLYKLYERCEVVMGNLEIVLTGHNADLSFLQWIREVTGYVLVAMNEFSTLPLPNLRVVRGTQVYDGKFAIFVMLNYNTNSSHALRQLRLTQLTEILSGGVYIEKNDKLCHMDTIDWRDIVRDRDAEIVVKDNGRSCPPCHEVCKGRCWGPGSEDCQTLTKTICAPQCNGHCFGPNPNQCCHDECAGGCSGPQDTDCFACRHFNDSGACVPRCPQPLVYNKLTFQLEPNPHTKYQYGGVCVASCPHNFVVDQTSCVRACPPDKMEVDKNGLKMCEPCGGLCPK
notes: Monomer by light scattering and ultracentrifugation; The N-terminal Drosophila leader comes from the vector; the protein is secreted; also called HER3^I-II; H3 I-II
Turning to B1, the binding entry in assay [2], in assay [3], in assay [4] and in assay [5] was “binds” in each case.
